No constants are given. Whether binding was seen depends on the method and setting. Some results given as binding are weak or reduced against the parent protein; the word gives no strength.
Tests used:
[1] = target: complement C5 (C5 antigen, Complement Technology, A120) (human) (UniProt P01031); assay: BLI (ForteBio Octet K2): antibody at 10 ug/mL loaded on anti-human IgG Fc sensor, C5 at 10 ug/mL, association 180 s, dissociation 500 s in pH7.4 or pH5.4 buffer
[2] = target: complement C5 (C5 antigen, Complement Technology, A120) (human) (UniProt P01031); assay: BLI (ForteBio Octet K2): antibody at 10 µg/mL loaded on anti-human IgG Fc sensor in neutral pH buffer, C5 antigen at 10 µg/mL, association 180 s, dissociation 500 s in pH7.4 buffer or pH5.4 buffer

The chains behind the UniProt entries cited, without tags or fusion partners. Where a name states a change or a piece, a line headed by the entry shows the natural chain unless it says otherwise.
UniProt P01031: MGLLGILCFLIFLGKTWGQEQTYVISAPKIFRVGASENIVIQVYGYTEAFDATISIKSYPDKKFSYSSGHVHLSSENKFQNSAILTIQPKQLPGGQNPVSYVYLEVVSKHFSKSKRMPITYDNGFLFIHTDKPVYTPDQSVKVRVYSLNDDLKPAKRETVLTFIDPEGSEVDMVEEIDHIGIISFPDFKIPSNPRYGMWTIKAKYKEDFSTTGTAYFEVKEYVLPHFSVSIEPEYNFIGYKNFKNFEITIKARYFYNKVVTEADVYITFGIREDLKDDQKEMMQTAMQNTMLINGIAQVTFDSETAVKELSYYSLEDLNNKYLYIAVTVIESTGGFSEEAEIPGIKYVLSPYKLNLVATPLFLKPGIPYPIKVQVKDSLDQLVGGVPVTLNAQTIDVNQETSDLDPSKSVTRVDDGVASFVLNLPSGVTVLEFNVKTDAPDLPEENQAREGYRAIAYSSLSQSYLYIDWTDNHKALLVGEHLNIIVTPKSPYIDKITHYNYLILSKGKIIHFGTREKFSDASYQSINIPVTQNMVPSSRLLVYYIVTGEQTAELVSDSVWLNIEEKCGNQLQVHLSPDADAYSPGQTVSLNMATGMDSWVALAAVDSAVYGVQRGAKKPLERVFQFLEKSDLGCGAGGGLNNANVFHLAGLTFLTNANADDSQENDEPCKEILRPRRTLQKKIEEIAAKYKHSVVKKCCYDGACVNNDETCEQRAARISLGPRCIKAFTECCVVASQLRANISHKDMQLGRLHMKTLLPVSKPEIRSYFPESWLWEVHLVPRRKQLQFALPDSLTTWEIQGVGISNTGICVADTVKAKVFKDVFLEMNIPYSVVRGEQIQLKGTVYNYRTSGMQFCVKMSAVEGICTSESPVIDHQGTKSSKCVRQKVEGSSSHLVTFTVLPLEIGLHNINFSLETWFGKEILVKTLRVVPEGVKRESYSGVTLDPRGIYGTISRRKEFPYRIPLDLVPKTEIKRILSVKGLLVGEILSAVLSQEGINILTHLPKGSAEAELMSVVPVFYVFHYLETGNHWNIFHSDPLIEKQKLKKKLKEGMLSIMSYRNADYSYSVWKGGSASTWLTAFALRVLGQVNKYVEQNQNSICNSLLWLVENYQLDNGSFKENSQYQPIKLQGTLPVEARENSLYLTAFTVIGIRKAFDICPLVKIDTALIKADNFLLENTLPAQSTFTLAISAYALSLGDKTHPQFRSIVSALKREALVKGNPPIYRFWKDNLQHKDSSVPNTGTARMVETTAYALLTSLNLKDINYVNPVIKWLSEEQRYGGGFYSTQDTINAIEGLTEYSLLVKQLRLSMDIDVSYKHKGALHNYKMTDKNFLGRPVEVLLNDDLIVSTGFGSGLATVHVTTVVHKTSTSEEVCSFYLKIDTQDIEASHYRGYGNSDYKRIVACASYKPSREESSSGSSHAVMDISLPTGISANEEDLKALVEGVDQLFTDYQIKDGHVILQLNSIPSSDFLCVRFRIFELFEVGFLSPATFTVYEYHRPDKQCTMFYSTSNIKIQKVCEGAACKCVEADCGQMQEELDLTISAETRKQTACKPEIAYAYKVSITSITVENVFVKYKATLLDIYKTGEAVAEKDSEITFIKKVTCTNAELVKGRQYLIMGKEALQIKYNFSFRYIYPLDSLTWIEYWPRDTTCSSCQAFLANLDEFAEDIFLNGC

- binding [1]: binds
- binding [2]: binds
B1: C5 antibody phAb (anti-human C5 antibody with pH-dependent dissociation properties) (antibody, human IgG4 S228P, kappa, V domains shown)
VH: QVQLVQSGAEVKKPGASVKVSCKASGYTFTNYGMNWVRQAPGQGLEWMGWINTYTGEPTYADDFKGRFTFTLDTSTSTAYLELSSLRSEDTAVYYCARTKVPHYFAYAMDYWGQGTLVTVSS
VL: DIVLTQSPSSLSASVGDRVTITCKASQSVDYHGDSYLNWYQQKPGKPPKLLIYAASNLESGIPSRFSGSGSGTDFTLTISSLQPEDFATYYCQQSNEDPSTFGGGTKLEIKR

Source: US20260201000A1
